The assay is described as follows: qHTS Assay for Lipid Storage Modulators in Drosophila S3 Cells.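 As to cell number change: cells counted by Cell Tracker Red CMTPX staining in the red channel.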 Particulars: BODIPY lipid droplet fluorescence, 18-24 h; for cell number change: measured here: cell count max response, cells fed with added oleic acid. An outline of the steps:
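Laser-scanning cytometry quantifies lipid droplet accumulation (500–530 nm total intensity; droplet/cell object ratio) in oleic acid-fed (400 uM added) Drosophila S3 cells treated with a concentration series. 20 uM Triacsin C defined 100% inhibition.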
For orientation: In qHTS, concentration-response curves come from the screen itself.

The mark [1] stands for this setting: measured here: cell number channel AC50, cells fed with added oleic acid.
Where [2] appears, read: measured here: lipid fluorescence (Fed channel) AC50, cells fed with added oleic acid.

The source of these data is PubChem BioAssay AID2685 (National Center for Advancing Translational Sciences (NCATS), 2010).

The term AC50 denotes the concentration at which the activity in the assay is half-maximal.

Structures are written as SMILES. The list shows a part of the results. Shown are side measurements of this screen, not its main read-out; they come without a call. The list favours compounds with an active or inconclusive main result. Potencies come from curve fits of mixed quality, noted in brackets.

For the compound `COC(=O)[C@H](Cc1ccccc1)NC(=O)N1CCCCC1C` (stereo partly specified), the cell number change was -43.7%. Besides, the AC50 under setting [1] is 32.6 µM [falling, single point]. Also, under setting [2], the half-maximal activity concentration (AC50) was 7.31 µM [falling, partial curve].

`COc1cccc(-c2csc(N3CCN(Cc4ccccc4)CC3)n2)c1`: the cell number change was -25.9%. The concentration at half-maximal activity (AC50) under setting [2] was 3.66 µM [rising, single point].

With `Nc1cccc(-c2cn(-c3cc4cc(C#CC5(O)CCCCC5)ccc4oc3=O)nn2)c1`, the cell number change was -41.8%. Moreover, under setting [1], the half-maximal activity concentration (AC50) was 25.9 µM [falling, single point]. Moreover, the AC50 under setting [2] was 25.9 µM [falling, single point].

In the case of `CS(=O)(=O)n1nc(OC(=O)c2cccs2)cc1N`, the cell number change stood at 30.6%. The half-maximal activity concentration (AC50) under setting [1] is 25.9 µM [rising, single point]. Also, the AC50 under setting [2] was 16.4 µM [rising, partial curve].

As to `CCc1nn(CC(=O)N2CCCCCC2)c(=O)c2cc3ccccc3n12`, the cell number change is -5.27%. In addition, the AC50 under setting [2] was 5.8 µM [rising, full curve].

On to `Cc1cccc(C)c1NS(=O)(=O)c1c(C)[nH]c(=O)[nH]c1=O`, for which the cell number change was -6.12%. Moreover, the half-maximal activity concentration (AC50) under setting [2] is 0.058 µM [falling, full curve, poor fit].

For `CCOC(=O)c1ccc(NC(=S)Nc2cccc(N)n2)cc1`, the cell number change is -26.6%. Besides, under setting [2], the concentration at half-maximal activity (AC50) was 18.4 µM [falling, single point].

For the compound `FC(F)(F)COc1ccc(-n2ccnc2)nn1`, the cell number change was 9.17%. Moreover, the AC50 under setting [1] is 0.103 µM [falling, full curve, poor fit]. Besides, the AC50 under setting [2] was 6.51 µM [falling, single point].

As to `Cc1onc(NC(=O)NC(=O)c2ccccc2F)c1Br`, the cell number change came to 42.6%. For the same compound, the AC50 under setting [1] is 6.51 µM [rising, partial curve]. Also, the AC50 under setting [2] was 29.1 µM [rising, single point].

Turning to `CCn1c(CNc2nc(-c3ccccc3)cs2)nnc1SCC(=O)NCc1ccco1`, the cell number change was determined as 8.63%. Also, the AC50 under setting [2] is 5.17 µM [rising, partial curve, poor fit].

Turning to `OC(CN1C2=NCCN2c2ccccc21)c1ccc(Br)cc1` (stereo unspecified), the cell number change is -41.2%. In addition, the AC50 under setting [1] is 0.82 µM [falling, full curve, poor fit]. Moreover, the concentration at half-maximal activity (AC50) under setting [2] is 1.03 µM [falling, full curve, poor fit].

In the case of `Cc1ccc(-c2nn3c(-c4ccco4)nnc3c3ccccc23)cc1S(=O)(=O)NCC1CCCO1` (stereo unspecified), the cell number change was 10.2%. Also, the AC50 under setting [2] was 2.59 µM [rising, full curve, poor fit].

On to `Cc1cccc(NC(=O)COC(=O)CSc2ccccc2)c1C`, for which the cell number change turned out to be 17%. For the same compound, the half-maximal activity concentration (AC50) under setting [2] was 2.91 µM [rising, partial curve, poor fit].

With `CCC(C)(C(=O)Nc1c(C)cccc1C)N(C)C(=O)c1ccc2ccccc2n1` (stereo unspecified), the cell number change stood at 12.9%.

Consider `CCN1CCN(Cc2ccc(NC(=O)c3cc(NC(=O)c4cncc(-c5cccs5)c4)cc(OC)c3)cc2C(F)(F)F)CC1`, for which the cell number change is -21%.

`COc1ccc(/C=N/N=C2/C(=O)Nc3ccccc32)cc1O`: the cell number change came to 63.1%. Also, the AC50 under setting [1] is 23.1 µM [rising, single point].

Regarding `O=C(COc1cccc(C(F)(F)F)c1)Nc1ccc(S(=O)(=O)N2CCCCC2)cc1`, the cell number change was -27.4%. For the same compound, the AC50 under setting [2] was 20.6 µM [falling, single point].

With `CCCCOc1ccc(C(=O)Nn2cnnc2)cc1`, the cell number change came to 1.27%.

For `COC(=O)c1cc(NC(=O)CSc2ncn[nH]2)ccc1Cl`, the cell number change was 0.829%. Also, the AC50 under setting [2] is 29.1 µM [rising, single point].

In the case of `Cc1cc(OCC(=O)N[C@@H](CSCc2ccccc2)C(=O)O)c2c(C)c(C)c(=O)oc2c1`, the cell number change amounted to 19.4%. Under setting [2], the AC50 is 29.1 µM [rising, single point].

As for `NC(=O)c1ccc(NS(=O)(=O)c2ccc(Br)s2)cc1`, the cell number change is -6.1%. Besides, the AC50 under setting [2] was 0.00651 µM [falling, full curve, poor fit].

As to `CC(C)OCCCNC(=O)c1ccc(NC(=O)C2=CSCCO2)cc1`, the half-maximal activity concentration (AC50) under setting [2] is 20.6 µM [falling, single point].

As to `COc1cccc(CN2CCNC(=O)C2CC(=O)NC2CCCCCCC2)c1` (stereo unspecified), the cell number change came to 31.8%.

In the case of `COc1ccccc1CN1CCCC(CNC(=O)c2cccc3ccccc23)C1` (stereo unspecified), the cell number change came out at 9.09%.

In the case of `CSc1nnc(C2CCN(CC(=O)Nc3ccccc3N3CCOCC3)CC2)n1C(C)C`, the cell number change is -4.17%.

As for `CC1CCCC(NC(=O)c2ccc(COc3ccccc3)o2)C1C` (stereo unspecified), the cell number change is -11.9%.

`Cc1cc(C(=O)COC(=O)c2ccc(O)cc2O)c(C)n1C(C)C`: the cell number change was -1.13%. The concentration at half-maximal activity (AC50) under setting [2] was 0.13 µM [rising, full curve, poor fit].

Turning to `COc1cccc2[nH]c3c(N4CC(C)CC(C)C4)ncnc3c12` (stereo unspecified), the cell number change was -63.4%. Under setting [1], the half-maximal activity concentration (AC50) was 5.8 µM [falling, partial curve]. Besides, under setting [2], the concentration at half-maximal activity (AC50) was 3.66 µM [falling, full curve].

For `O=C(COC(=O)C12CC3CC(CC(C3)C1)C2)Nc1ncc(Cl)cc1Cl`, the cell number change was -41.8%. Under setting [1], the AC50 is 8.2 µM [falling, partial curve, poor fit]. Also, under setting [2], the half-maximal activity concentration (AC50) was 29.1 µM [falling, single point].

With `CC(C)c1ccc(NC(=O)CCNC(=O)Cn2ccc3ccccc3c2=O)cc1`, the cell number change came to 290%. The AC50 under setting [1] is 25.9 µM [rising, single point]. Besides, the concentration at half-maximal activity (AC50) under setting [2] is 3.66 µM [rising, full curve].

Take `COc1ccc(N2CC(C(=O)N[C@H](C(=O)NC3CCCCC3)C(C)C)CC2=O)cc1` (stereo partly specified): the cell number change stood at 43.6%. For the same compound, under setting [1], the concentration at half-maximal activity (AC50) is 32.6 µM [rising, single point].

For `O=C(Cc1c[nH]c2ccccc12)OCCOC(=O)Cc1c[nH]c2ccccc12`, the cell number change is -37%. For the same compound, the AC50 under setting [1] is 14.6 µM [falling, single point]. Further, under setting [2], the concentration at half-maximal activity (AC50) was 16.4 µM [falling, single point].

Turning to `CC(=O)Nc1ccc(S(=O)(=O)NCCN2CCOCC2)cc1`, the cell number change was 1.51%.

With `O=C1c2ccccc2C(=O)N1CCCCN(C(=O)c1cc2ccccc2oc1=O)c1ccc(F)cc1F`, the cell number change was -2.37%. The AC50 under setting [2] is 25.9 µM [rising, single point].

For the compound `CCOc1cc(/C=C/C(=O)O)ccc1OCCOc1ccc(F)cc1`, the cell number change is -20.8%. Under setting [1], the AC50 was 0.146 µM [falling, full curve, poor fit]. The AC50 under setting [2] was 0.326 µM [falling, full curve].

For the compound `CCOCCCNC(=S)Nc1ccc2nc3n(c(=O)c2c1)CCCCC3`, the AC50 was 2.31 µM [rising, partial curve] under setting [1] and 2.06 µM [rising, partial curve] under setting [2].

Turning to `O=C(CCCC(=O)c1ccc(F)cc1)c1ccc(F)cc1`, the cell number change is 12.7%. Also, the concentration at half-maximal activity (AC50) under setting [2] is 0.58 µM [rising, full curve, poor fit].
